For at least one compound, name, drawing or mass did not settle the structure.
Test system: malignant glioma U87 cell line
Assay: WST-1 cell viability assay for PDT anti-cancer effectiveness
Format: cell-based
Settings: photosensitizer and light exposure (530 nm, 30 mJ range) applied simultaneously, U87 cells; FIG. 11a
Method: To maximize light transmission, a 530±15 nm LED was used to verify the improvement in PDT efficiency with a developed light-guiding adhesive patch using the malignant glioma U87 cell line.
Specifically, the anti-cancer effectiveness through PDT was verified using the WST-1 cell viability assay. During the PDT efficiency verification, initial tests were conducted to establish PDT conditions, investigating the toxicity of the photosensitizer and light exposure.

## Cc1cc(O)c2c(=O)c3c(O)cc(O)c4c5c(O)cc(O)c6c(=O)c7c(O)cc(C)c8c1c2c(c34)c(c78)c65 [Hypericin]
  cell death (reduction in cell viability): statistically significant cell death
